# Experimental data as given in PubChem BioAssay AID651640 (Broad Institute, 2012).
# “And” between values parts separate entries of the source, which are not always exact repeats. Equal values may be shown once. Screen size: about 350,000 compounds; about 6,000 (1.7%) were called active. The inconclusive results got no clear call from the source; some entries with a clear call stand among them for comparison. Cut-off read from the data, not from the text of the source: active = CPE inhibition above about 20% (passing the limit was not always enough); inconclusive = no clear call, values can overlap the other calls; tested in BHK-21 cells. The source holds several records for some structures; these can differ, active in one and inactive in another.
# Experiment: protection of cells from dengue 2 killing – plate reader, single concentration, primary screen (AID 651640);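 note: 0% = median of neutral control wells and 100% = median of positive control wells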
# Conditions: DENV2-infected cells, cytopathic effect rescue, at 9.99 µM, stronger effect = higher value
row,Compound,CPE inhibition
1,CCCc1cc(=O)oc2c3c(cc(OCC(=O)NCc4ccccn4)c12)OC(C)(C)CC3,inconclusive: 55.4%
2,C[C@@H]1CN([C@@H](C)CO)C(=O)Cc2cc(NS(=O)(=O)c3ccc(F)cc3)ccc2O[C@H]1CN(C)C(=O)NC1CCCCC1,inconclusive: 35.3%
3,COc1ccc(/C=N/NC(=O)c2c(C)nc3ccc(Cl)cn23)cc1OC,inactive: -0.0975%
4,O=C(C[C@H]1CC[C@@H]2[C@H](COC[C@@H](O)CN2CC2CCCC2)O1)NCC1CC1,inconclusive: 22%
5,CCn1c(SCc2cccc(F)c2)nnc1-c1ccncc1,active: 46.8%
6,O=C(CNC(=O)c1ccccc1Cl)c1ccccc1,inconclusive: 35.5%
7,O=c1[nH]cccc1-c1nc2ccccc2[nH]1,inactive: -0.292%
8,COc1ccc(NC(=O)CN2CCN(CC(=O)Nc3ccc(OC)cc3)CC2)cc1,inconclusive: 22.7%
9,O=C(c1ccccc1Cl)N1CCSCC1,inconclusive: 48.8%
10,COCCNC(=O)c1cc(-c2ccccc2OC)on1,inconclusive: 25.2%
11,CN1C(=O)c2cc(NC(=O)c3cccc(F)c3)ccc2OC[C@H]2O[C@H](CC(=O)NCC3CC3)CC[C@@H]21,inconclusive: 38.4%
12,O=C(Cc1cccnc1)N1CC2(C1)[C@@H](c1ccccc1)[C@H](CO)N2C(=O)C1CCOCC1,inactive: -12.2%
13,C[C@@H]1CN([C@@H](C)CO)C(=O)c2cc(NC(=O)c3ccncc3)ccc2O[C@@H](C)CCCCO[C@@H]1CN(C)S(=O)(=O)c1ccc(F)cc1,inactive: -1.35%
14,CCN(CC)Cc1nc2c(c(=O)[nH]1)C(CC)(CC)Cc1ccccc1-2,inconclusive: 20.9%
15,Cc1ccc(S(=O)(=O)N2CCOC2CNC(=O)C(=O)NCCCc2ccccc2)cc1 (stereo not drawn),inconclusive: 39.6%
16,C[C@H](CO)N1C[C@H](C)[C@H](CN(C)C(=O)Nc2cccc3ccccc23)OCCCC[C@H](C)Oc2ccc(NS(=O)(=O)c3ccc(F)cc3)cc2C1=O,inconclusive: 44.2%
17,CC1CCC(NS(=O)(=O)c2ccc(Cl)nc2)CC1 (stereo not drawn),inconclusive: 74.6%
18,C[C@@H]1CN([C@@H](C)CO)C(=O)c2cccc(NC(=O)C3CCOCC3)c2O[C@H]1CN(C)C(=O)Nc1ccccc1,inconclusive: 43.3%
19,C=CCN1CCN(C(=O)c2ccc3c(c2)OCO3)CC1,inconclusive: 35%
20,C[C@@H]1CN([C@H](C)CO)C(=O)c2cc(NC(=O)C3CC3)ccc2O[C@@H]1CN(C)Cc1ccc2c(c1)OCO2,inactive: 7.17%
21,Nc1ccc(Cl)cc1C(=O)c1ccc[nH]1,inconclusive: 43.7%
22,COc1ccc(C(=O)C2CCCN(Cc3cn(C)nc3-c3ccccc3)C2)cc1F (stereo not drawn),inconclusive: 20.7%
23,COc1cccc(CN(C)C[C@@H]2OCc3ccccc3-c3c(n(C)c4ccccc34)C(=O)N([C@@H](C)CO)C[C@H]2C)c1,active: 49.3% and inactive: 11.4%
24,O=C(CSc1nnc2ccc(-c3cccnc3)nn12)Nc1ccc(F)cc1,inconclusive: 36.7%

# For convenience, part of the list above:
row,Compound,CPE inhibition
7,O=c1[nH]cccc1-c1nc2ccccc2[nH]1,inactive: -0.292%
8,COc1ccc(NC(=O)CN2CCN(CC(=O)Nc3ccc(OC)cc3)CC2)cc1,inconclusive: 22.7%

# Further results:

row,Compound,CPE inhibition
1,O=C(O)CCC(=O)Nc1ccc(-c2nnc(-c3ccco3)o2)cc1,inconclusive: 22.8%
2,COc1ccc(OC)c(CN2CCN(C(=O)CCC(=O)c3cccs3)CC2)c1,inconclusive: 43.8%
3,CC(C)NC(=O)N1[C@H](CO)[C@@H]2c3ccccc3N(C(=O)Nc3ccc(F)cc3)C[C@@H]21,inactive: -9.68%
4,CC(C)(C)n1nnnc1C(c1ccccc1OC(F)(F)F)N1CCN(C/C=C/c2ccccc2)CC1 (stereo not drawn),inconclusive: 29.2%
5,CO[C@@H]1CN(C)C(=O)c2ccc(NC(=O)c3cc(C)on3)cc2OC[C@@H](C)N(S(=O)(=O)c2cccc(F)c2)C[C@H]1C,inactive: 12%
6,O=C(O)C[C@@H]1C[C@H]2c3cc(NS(=O)(=O)c4ccccc4)ccc3O[C@H]2[C@H](CO)O1,inactive: 7.48%
7,COc1ccccc1CN1CCCC(C(=O)N2CCCCC2)C1 (stereo not drawn),inconclusive: 46.7%
8,COc1ccc(CN(C)C[C@@H]2OCCCC[C@@H](C)Oc3ccc(NS(=O)(=O)c4cccs4)cc3C(=O)N([C@H](C)CO)C[C@H]2C)cc1,inactive: 6.98%
9,C[C@H]1CCCCO[C@H](CN(C)S(=O)(=O)c2ccccc2)[C@@H](C)CN([C@@H](C)CO)C(=O)c2cc(NC(=O)Cc3ccccc3)ccc2O1,inconclusive: 49.7%
10,O=C(C[C@H]1C[C@H]2c3cc(NC(=O)c4cccnc4)ccc3O[C@H]2[C@@H](CO)O1)NC1CCCCC1,inactive: -1.11%
11,Cc1noc(C)c1NC(=O)N(C)C[C@@H]1Oc2ccc(NC(=O)CCN3CCOCC3)cc2C(=O)N([C@@H](C)CO)C[C@@H]1C,inconclusive: 26.7%
12,COc1cc(/C=N/NC(=O)CCN2CCN(C)CC2)cc2c1OCO2,inconclusive: 38.3%
13,O=C(Nc1ccc(F)cc1)N[C@@H]1CC[C@@H](CCn2cc(-c3ccc(F)cc3)nn2)O[C@H]1CO,active: 21.7%
14,CCC(O)CC(C(=O)NNc1ccccc1)C(=O)NNc1ccccc1 (stereo not drawn),inconclusive: 20.4%
15,Cc1cc(SCC(=O)NCCC2=CCCCC2)nc2ccccc12,inconclusive: 61%
16,CCN(CC)C(=O)C(Sc1nnnn1-c1ccc(O)cc1)c1ccccc1 (stereo not drawn),inconclusive: 27%
17,O=C(NCc1ccc(Cl)c(Cl)c1)c1cc(C2CCCCN2C(=O)OCCF)on1 (stereo not drawn),active: 29.6%
18,Cc1ccc(N(C)C)cc1,active: 22.4%
19,c1ccc(CN2CC[C@@H](Nc3nccn4ccnc34)C2)cc1,inconclusive: 29.4%
20,Cc1cc(=O)oc2cc(OCC(=O)N(C)C3CCS(=O)(=O)C3)c(Cl)cc12 (stereo not drawn),inconclusive: 26.8%
21,COc1ccc(-c2csc(NC(=O)CN3C(=O)NC4(CCCC4)C3=O)n2)cc1,inactive: 4.99%
22,OC[C@H]1[C@@H](c2ccc(-c3ccc(F)cc3)cc2)[C@@H]2CN(Cc3ccccn3)CCCCN12,active: 29.1%
23,O=S(=O)(c1ccc2c(c1)OCCO2)N1CCCN(S(=O)(=O)c2c(F)cccc2F)CC1,active: 89.7%
24,O=S(=O)(c1ccccc1)N(CC(O)CN1CCOCC1)c1ccccc1 (stereo not drawn),inconclusive: 36.8%
